Laboratory results published in paper PMC7819943, “Rice protein-binding microarrays: a tool to detect cis-acting elements near promoter regions in rice”.
This is one part of the list.

What follows are sequences tested against T1, OsSMF1 (Oryza sativa, UniProt Q6ZLB0 1-436) (assay: protein-binding microarray (RPBM); PBS, 2% BSA, 51.3 ng/ul salmon testes DNA, 50 uM zinc acetate, 200 nM TF, 25 C, 1 h; high values mean tight binding). Details: protein: recombinant; tags: N-terminal polyhistidine and DsRed monomer fusion (pET32a); chain copies: 2; label: CyDye5-dUTP incorporated in the synthesized complementary strand; 3' TTTTT single-stranded linker to array surface; dsDNA, one strand shown.
T1 sequence: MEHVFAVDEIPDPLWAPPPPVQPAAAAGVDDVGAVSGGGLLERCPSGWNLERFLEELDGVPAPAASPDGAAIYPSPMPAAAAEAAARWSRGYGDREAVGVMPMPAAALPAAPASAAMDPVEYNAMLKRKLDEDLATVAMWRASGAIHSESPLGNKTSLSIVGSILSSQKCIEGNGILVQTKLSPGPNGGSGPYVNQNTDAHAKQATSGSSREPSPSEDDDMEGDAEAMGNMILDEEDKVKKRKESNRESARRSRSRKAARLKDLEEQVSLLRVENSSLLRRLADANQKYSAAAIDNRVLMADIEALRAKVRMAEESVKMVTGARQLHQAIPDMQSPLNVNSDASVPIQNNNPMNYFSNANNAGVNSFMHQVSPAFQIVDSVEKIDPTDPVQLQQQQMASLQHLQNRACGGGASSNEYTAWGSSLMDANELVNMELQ
How it was run: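 The binding signal is fluorescence intensity per feature, in arbitrary units, read on an Axon 4000B scanner. Polyhistidine- and DsRed-tagged transcription factors (N-terminal fusions) from E. coli BL21-CodonPlus were purified on Ni–NTA and applied at 200 nM for 1 h at 25 °C to a double-stranded, BSA-blocked custom Agilent array in buffer with 50 µM zinc acetate.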

Row | Sequence | binding signal
1 | GTATTGTAGCTGACTATATATCTGTAGCCCCGCTATTCTTCGGAGTCACCTAGTGCAG | 3830 fluorescence intensity (a.u.)
2 | ATTTCCATCCATGATTGACGCCCTTCCTAAAACCAAGTTGCGGAGTCACCTAGTGCAG | 3350 fluorescence intensity (a.u.)
3 | GTTATGGATGCCTCATTACGTGTAGCCACCAAACCCAAAGCGGAGTCACCTAGTGCAG | 4970 fluorescence intensity (a.u.)
4 | GGCTTCTGCCGTGTCTGGACACGATGGGCCTCCCCTGCATCGGAGTCACCTAGTGCAG | 3420 fluorescence intensity (a.u.)
5 | AGACCTTCCCCGCGGTGACGCGTGCGTCGTCAGCCGGCGACGGAGTCACCTAGTGCAG | 8160 fluorescence intensity (a.u.)
6 | GCTGCATGTTGGAAGAGTTTGTTGACGTGGATATATATCTCGGAGTCACCTAGTGCAG | 11400 fluorescence intensity (a.u.)
7 | TCCTATACGCGTAGAGTACACGGTGCAGTGTATAGTACATCGGAGTCACCTAGTGCAG | 3180 fluorescence intensity (a.u.)
8 | TGAAGGACTTACAAATGATCACAGGGTCATGGGTGTTGTACGGAGTCACCTAGTGCAG | 3240 fluorescence intensity (a.u.)
9 | AATGCCAAGTGGCAGCCTATGAGCGTTTGTAGCATGCCATCGGAGTCACCTAGTGCAG | 41200 fluorescence intensity (a.u.)
10 | TGCACTGTGTTTAAGTTATAAAATACTCCTACATCTTTATCGGAGTCACCTAGTGCAG | 28100 fluorescence intensity (a.u.)
11 | GGTAGAGAAGACGAGGAGTAGGAGGGGTGGTTGGTGCCGACGGAGTCACCTAGTGCAG | 3550 fluorescence intensity (a.u.)
12 | CCGGTACTTTGGTACGTCATCCGTGCATGAGTTGGTTTTCCGGAGTCACCTAGTGCAG | 7210 fluorescence intensity (a.u.)
13 | GACACCAGTAAACCACCCTCTCCCACTGACACCTCGGCCCCGGAGTCACCTAGTGCAG | 3300 fluorescence intensity (a.u.)
14 | GGCCTCTTCGTGGTCTCGGTTCACAGTCACTGGCCACTGGCGGAGTCACCTAGTGCAG | 3580 fluorescence intensity (a.u.)
15 | TAAGCACCCGAGTTGATCCCCATGAGACGTGGCGACTCGGCGGAGTCACCTAGTGCAG | 3530 fluorescence intensity (a.u.)
16 | CTGAGGTGGGCCCACGTGACAGTCTCACAGCCCACTCCCCCGGAGTCACCTAGTGCAG | 3390 fluorescence intensity (a.u.)
17 | GTTCTCGTGGGCCCCACCCCGCGCCGAGAGGCTGCAGCAGCGGAGTCACCTAGTGCAG | 15900 fluorescence intensity (a.u.)
18 | TAGTGGCTACACTCTTGAGCTGGTAGTACAGTATCTACTACGGAGTCACCTAGTGCAG | 3290 fluorescence intensity (a.u.)
19 | ACTGTCCGCATCCTCGTTGCCGCCGTCGTGGCACATCGCGCGGAGTCACCTAGTGCAG | 7390 fluorescence intensity (a.u.)
20 | ACAGCGGAGAATAAGTTTGTTGACCCTGATCTACTTGATACGGAGTCACCTAGTGCAG | 17500 fluorescence intensity (a.u.)
21 | ATGGAGGTATTGTGCCAGAGTGCATGCTGACCACGGCAACCGGAGTCACCTAGTGCAG | 4060 fluorescence intensity (a.u.)
22 | GCGTGTTGAGTCGGATCGAGGTTTGCGTTTGTGTTCGTTTCGGAGTCACCTAGTGCAG | 3510 fluorescence intensity (a.u.)
23 | TTGTGTGTGCGTTTGTGATTGCGTCGGTCGGTTTCAGTTCCGGAGTCACCTAGTGCAG | 4960 fluorescence intensity (a.u.)
24 | TTGTCCCTTTCATCATCACGCATTGTTATGCTATTGCTGCCGGAGTCACCTAGTGCAG | 3200 fluorescence intensity (a.u.)
25 | GCTGTCGTACTCTTTCGTAATGTCGTTGCTTACGGAGTACCGGAGTCACCTAGTGCAG | 3230 fluorescence intensity (a.u.)
26 | ACAGCAGTACCGCTACCATTAGAACAGCCACGTATATGAACGGAGTCACCTAGTGCAG | 6090 fluorescence intensity (a.u.)
27 | CAGATTGTCAAGACACCTATGGTGCCCGGCAAATTCCTCCCGGAGTCACCTAGTGCAG | 4360 fluorescence intensity (a.u.)

Row | Sequence | binding signal
28 | GAGGCTCGGCGACGGCCGGTGGGCGAGGAGCAGCGGCGGGCGGAGTCACCTAGTGCAG | 26600 fluorescence intensity (a.u.)
29 | CGTTGCCGACGCGTGTGTTTGCTGAGACGCCATTGTCACACGGAGTCACCTAGTGCAG | 4730 fluorescence intensity (a.u.)
30 | TTGGTTCTTATGCTGAATCATCGTGTGCTGCACTTGTTGTCGGAGTCACCTAGTGCAG | 3270 fluorescence intensity (a.u.)
31 | ACAGACCGCTTCTGTCACCTGCCTGCACAAAGGGGATTGGCGGAGTCACCTAGTGCAG | 4290 fluorescence intensity (a.u.)
32 | TGATGCACGGTGGGCCTCTGGTTGCTCGGCCCAGTAAAACCGGAGTCACCTAGTGCAG | 3310 fluorescence intensity (a.u.)
33 | CAATCGCGGCGTCGGCGTGCCGTCGCTTGGGGTGGTGTTGCGGAGTCACCTAGTGCAG | 38600 fluorescence intensity (a.u.)
34 | CCGGTTTGCTGCTCGGAGATGACGAGGGGCATGAGCTATGCGGAGTCACCTAGTGCAG | 5600 fluorescence intensity (a.u.)
35 | TCTTTCTGTACTCCTTTTGATAATCTGATGAAGCTCTGCTCGGAGTCACCTAGTGCAG | 3650 fluorescence intensity (a.u.)
36 | TAAATTCACACACGCCCCACCTCGTCACTCGTCTCGTCTCCGGAGTCACCTAGTGCAG | 6040 fluorescence intensity (a.u.)
37 | CAGAATTGAAGAACTCAGGGAGCGTGTGGAGTGCAATATCCGGAGTCACCTAGTGCAG | 3390 fluorescence intensity (a.u.)
38 | ATTATCCCTGACAGGTGGGCTCCACGTGTCAGCGACTGTTCGGAGTCACCTAGTGCAG | 29900 fluorescence intensity (a.u.)
39 | TGGGATTCGGTGACATCAAATGAGAATGTCACGGGAGAATCGGAGTCACCTAGTGCAG | 3590 fluorescence intensity (a.u.)
40 | GTACATCAAACATTATCAATATCGGACACATAATCCATTGCGGAGTCACCTAGTGCAG | 3850 fluorescence intensity (a.u.)
41 | TGGCATTGACGTGGCGCTTACGTGGCATTATATCTTGAAACGGAGTCACCTAGTGCAG | 33400 fluorescence intensity (a.u.)
42 | CCGCGGCACGCAGGCGTACGTCAACGGCGACGTGTACGACCGGAGTCACCTAGTGCAG | 3620 fluorescence intensity (a.u.)
43 | TTAGCCTGTATTTTCCTAACATTGCTACTAATATTGGATGCGGAGTCACCTAGTGCAG | 12400 fluorescence intensity (a.u.)
44 | AAATTATGAGCGTATTGGGGATTGTACACAGGATCTCAGGCGGAGTCACCTAGTGCAG | 4280 fluorescence intensity (a.u.)
45 | TGTGGGTCTGTTCAGATTCATTATATTAGAACGCGTCACGCGGAGTCACCTAGTGCAG | 6250 fluorescence intensity (a.u.)
46 | TCCTTGTCGCGCTGCCATCGCCACCCAATGCCATCGAGCTCGGAGTCACCTAGTGCAG | 49600 fluorescence intensity (a.u.)
47 | CATCTCACATTTGGTGGAGGAGGTGGCATCCTCACCTGCTCGGAGTCACCTAGTGCAG | 3830 fluorescence intensity (a.u.)
48 | GGCTAGCCGGCCCGGGTTCGAGACTCAGTGACTCACTCATCGGAGTCACCTAGTGCAG | 8170 fluorescence intensity (a.u.)
49 | CTCGGACCAGTGACATGATCATGAGCTGGCAATACCGATGCGGAGTCACCTAGTGCAG | 33400 fluorescence intensity (a.u.)
50 | GCATGCGGGATAGGAGCTTGACTAGCATGACGAGGCAGAACGGAGTCACCTAGTGCAG | 5890 fluorescence intensity (a.u.)
51 | CAGCAGTTTGCTCACCCGAGCAACCTGTAGGTCATCATGTCGGAGTCACCTAGTGCAG | 4600 fluorescence intensity (a.u.)
52 | ATGCATGGCTACCATGGCTGCATATTCCTTTCACGATTACCGGAGTCACCTAGTGCAG | 3330 fluorescence intensity (a.u.)
53 | CCGCATCGGATCCCCATCTCCCGATCCCACACGGTCACACCGGAGTCACCTAGTGCAG | 3240 fluorescence intensity (a.u.)
54 | AAGTGTGGAGGTGGCATATCTTTATCCATTTGGTTGTTATCGGAGTCACCTAGTGCAG | 4430 fluorescence intensity (a.u.)

Three records picked at random from those above, as already listed:
Row | Sequence | binding signal
50 | GCATGCGGGATAGGAGCTTGACTAGCATGACGAGGCAGAACGGAGTCACCTAGTGCAG | 5890 fluorescence intensity (a.u.)
43 | TTAGCCTGTATTTTCCTAACATTGCTACTAATATTGGATGCGGAGTCACCTAGTGCAG | 12400 fluorescence intensity (a.u.)
49 | CTCGGACCAGTGACATGATCATGAGCTGGCAATACCGATGCGGAGTCACCTAGTGCAG | 33400 fluorescence intensity (a.u.)
